Changes are numbered by the printed parent chain. Results are given in words; binding and its absence hold for the method and conditions named. Binding seen in cells or lysates may run through a third protein. Binding calls can cover weak binding; strength is not graded here. Sequences can lack the tags named with a protein.

Assay [1] deals with T1, Drosophila melanogaster Polo-like kinase 4, wild type (Plk4-WT-GFP and Plk4-WT-myc) (D. melanogaster) (UniProt O97143).
T1 sequence: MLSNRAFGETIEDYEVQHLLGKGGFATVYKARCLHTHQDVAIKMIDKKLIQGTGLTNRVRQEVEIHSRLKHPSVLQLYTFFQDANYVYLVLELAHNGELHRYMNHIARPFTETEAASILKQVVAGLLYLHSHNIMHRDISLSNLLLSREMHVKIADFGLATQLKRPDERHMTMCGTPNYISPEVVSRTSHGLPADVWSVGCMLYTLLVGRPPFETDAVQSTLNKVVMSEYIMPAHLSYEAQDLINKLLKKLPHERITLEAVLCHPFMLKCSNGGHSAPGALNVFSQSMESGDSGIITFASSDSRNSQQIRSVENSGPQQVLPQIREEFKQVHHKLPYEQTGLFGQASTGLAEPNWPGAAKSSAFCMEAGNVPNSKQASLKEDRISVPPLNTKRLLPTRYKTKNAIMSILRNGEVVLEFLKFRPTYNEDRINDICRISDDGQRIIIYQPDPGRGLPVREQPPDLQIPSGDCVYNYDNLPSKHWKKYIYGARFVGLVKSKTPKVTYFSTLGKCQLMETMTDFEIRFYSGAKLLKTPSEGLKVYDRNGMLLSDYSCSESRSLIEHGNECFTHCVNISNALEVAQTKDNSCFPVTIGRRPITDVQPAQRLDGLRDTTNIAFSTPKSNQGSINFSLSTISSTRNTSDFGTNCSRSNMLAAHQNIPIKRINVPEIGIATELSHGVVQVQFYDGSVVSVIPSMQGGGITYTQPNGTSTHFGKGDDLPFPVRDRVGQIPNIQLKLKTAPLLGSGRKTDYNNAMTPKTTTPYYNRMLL
The experiment in a line: co-IP.

Assay [2] has as its target T2, Plk4 Dimer Mutant 2 (DM2; V590D/I592T) (Plk4-DM2-myc and Plk4-DM2-GFP) (D. melanogaster) (UniProt O97143).
T2 sequence: T1 sequence with V590D, I592T
Description: co-IP.

For “Asl-A mutant lacking the dimerization domain CC3 (Drosophila) (domain or fragment)”, in assay [1], the binding result is reported as “binds”.

For the substance “Asl-A, the N-terminal third of Drosophila Asterless (Asl-A-V5; also GFP-tagged Asl-A) (domain or fragment)”, in assay [1], the binding entry is “binds”. Consider “Cep135 (centriole protein), endogenous (Drosophila (endogenous in S2 cells))”, for which the binding result in assay [2] is “binds”. On to “Slimb (F-box protein), endogenous (Drosophila (endogenous in S2 cells))”, for which the binding entry in assay [1] and in assay [2] was “binds” throughout.
